Results deposited as PubChem BioAssay AID652243 (Drosophila RNAi Screening Center, 2013).
In all, the deposit lists about 24,000 reagents; below is a random part of those with a known target gene and a result. Over the whole deposit, 246 (1%) are marked active. 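Plates not normalised; calls are printed but the firefly/Renilla ratio behind them is not deposited; fold cut for lowering reported inconsistently.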 Raw values vary from plate to plate and are shown uncorrected. The numbers tell different reagents against one gene apart. A plus sign joins genes that one reagent is predicted to hit. Not given: the amount of reagent.

Assay: 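Knock-downs that decrease or increase androgen receptor reporter signal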 (primary screen)
System: Drosophila S2R+ cells
Reagents: long dsRNA against Drosophila genes
Time to read-out: 72 h (48 h, then 24 h hormone)
Treatment: synthetic androgen R1881 at 10 nM for 24 h
Detection: 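Per-well raw luminescence of the androgen-driven firefly reporter and of the Renilla control, two replicates each, without normalisation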
Scale: firefly reporter light: higher = more light from androgen-responsive reporter; Renilla control light: higher = more constitutive control signal (cell number, transfection)
Call rule: 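Hit when the log firefly-to-Renilla ratio dropped or increased by a fixed fold versus the mean of GFP or LacZ controls across duplicate plates; lowering cut given as 1.5 and as 3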
Calls: active = hit: reporter lowered or raised; inactive = no hit

After knock-down of CG31808 (GeneID 10178782) #1 the results were firefly reporter light, replicate 1 = 3.80e5; firefly reporter light, replicate 2 = 6.94e5; Renilla control light, replicate 1 = 1.24e6; Renilla control light, replicate 2 = 2.37e6; inactive.
Depletion of CG31808 (GeneID 10178782) #2 resulted in: firefly reporter light, replicate 1 = 5.91e5; firefly reporter light, replicate 2 = 4.67e5; Renilla control light, replicate 1 = 1.52e6; Renilla control light, replicate 2 = 1.47e6; inactive.
With knock-down of Ddx1 (GeneID 40457), the record shows firefly reporter light, replicate 1 = 35800; firefly reporter light, replicate 2 = 37444; Renilla control light, replicate 1 = 2.83e5; Renilla control light, replicate 2 = 2.49e5; inactive.
With knock-down of CG7139 (GeneID 40448) #1, the screen gave firefly reporter light, replicate 1 = 29917; firefly reporter light, replicate 2 = 33467; Renilla control light, replicate 1 = 3.25e5; Renilla control light, replicate 2 = 2.87e5; inactive.
With knock-down of CG7139 (GeneID 40448) #2, the screen gave firefly reporter light, replicate 1 = 5.76e5; firefly reporter light, replicate 2 = 8.63e5; Renilla control light, replicate 1 = 5.96e5; Renilla control light, replicate 2 = 9.02e5; inactive.
With knock-down of CG17343 (GeneID 35180) #1, the record shows firefly reporter light, replicate 1 = 1.91e5; firefly reporter light, replicate 2 = 2.26e5; Renilla control light, replicate 1 = 2.31e6; Renilla control light, replicate 2 = 2.64e6; inactive.
With knock-down of CG17343 (GeneID 35180) #2, the screen gave firefly reporter light, replicate 1 = 2.73e5; firefly reporter light, replicate 2 = 5.11e5; Renilla control light, replicate 1 = 5.43e5; Renilla control light, replicate 2 = 8.38e5; inactive.
CG17343 (GeneID 35180) #3 scored firefly reporter light, replicate 1 = 2.08e5; firefly reporter light, replicate 2 = 2.58e5; Renilla control light, replicate 1 = 5.65e5; Renilla control light, replicate 2 = 5.66e5; inactive.
Depletion of Hsp70Bb + Hsp70Bbb gave: firefly reporter light, replicate 1 = 4.43e5; firefly reporter light, replicate 2 = 1.05e6; Renilla control light, replicate 1 = 9.67e5; Renilla control light, replicate 2 = 1.98e6; inactive.
Against CG15035 (GeneID 31673), the entry reads firefly reporter light, replicate 1 = 2.04e5; firefly reporter light, replicate 2 = 3.28e5; Renilla control light, replicate 1 = 1.64e6; Renilla control light, replicate 2 = 3.37e6; inactive.
CG14722 (GeneID 41419) #1 scored firefly reporter light, replicate 1 = 22744; firefly reporter light, replicate 2 = 44179; Renilla control light, replicate 1 = 2.79e5; Renilla control light, replicate 2 = 4.29e5; inactive.
CG14722 (GeneID 41419) #2 showed firefly reporter light, replicate 1 = 1.43e6; firefly reporter light, replicate 2 = 1.67e6; Renilla control light, replicate 1 = 1.13e6; Renilla control light, replicate 2 = 1.24e6; inactive.
For CG14722 (GeneID 41419) #3, the entry reads firefly reporter light, replicate 1 = 1.32e6; firefly reporter light, replicate 2 = 6.78e5; Renilla control light, replicate 1 = 2.51e6; Renilla control light, replicate 2 = 1.48e6; inactive.
Against CycE (GeneID 34924) #1 the deposit lists firefly reporter light, replicate 1 = 2.93e5; firefly reporter light, replicate 2 = 1.64e5; Renilla control light, replicate 1 = 8.76e5; Renilla control light, replicate 2 = 7.39e5; inactive.
CycE (GeneID 34924) #2 showed firefly reporter light, replicate 1 = 1.58e5; firefly reporter light, replicate 2 = 1.49e5; Renilla control light, replicate 1 = 1.75e6; Renilla control light, replicate 2 = 1.70e6; inactive.
CycE (GeneID 34924) #3 scored active.
